We go through two molecules from US20200291391A1, “CROSS-LINKED EPITOPES AND METHODS OF USE THEREOF” (Indi Molecular, Inc., priority 2019, published 2020).

The chains behind the UniProt entries cited, without tags or fusion partners. Residues count along the entry.
UniProt P01732, 22-235 limits assumed: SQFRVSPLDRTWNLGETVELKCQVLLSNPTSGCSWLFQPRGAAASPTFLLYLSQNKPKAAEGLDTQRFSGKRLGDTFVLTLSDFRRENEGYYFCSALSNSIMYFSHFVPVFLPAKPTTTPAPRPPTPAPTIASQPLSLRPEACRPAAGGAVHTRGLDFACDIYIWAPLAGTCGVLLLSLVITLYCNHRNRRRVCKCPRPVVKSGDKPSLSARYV

For this assay, the target named is immobilized recombinant CD8 protein (Homo sapiens, UniProt P01732). Put plainly: Solid-phase ELISA on immobilized recombinant CD8 protein. The method, then: Eight hits were left after this screening (Table 8) (from top to bottom: SEQ ID NOs:31, 32, 33, 34, 30, 35, 36, 37). These hits were assessed in solid phase ELISA and in flow cytometry experiments (Table 9).
Of the 8 hits obtained from the CD8α/β screen, nfyrr (SEQ ID NO:32) and vlyrr (SEQ ID NO:30) show binding to immobilized recombinant CD8 protein. The EC50 of vlyrr (SEQ ID NO:30) is 77±19 nM. The EC50 of nfyrr (SEQ ID NO:32) is 47±8 nM. The data agree between the solid-phase ELISA and flow experiments.

The match of structure and compound is tentative.

The term EC50 denotes the concentration giving half of the maximal effect. For the molecule `CC(C)C[C@@H](NC(=O)[C@H](N)C(C)C)C(=O)N[C@H](Cc1ccc(O)cc1)C(=O)N[C@H](CCCNC(=N)N)C(=O)N[C@H](CCCNC(=N)N)C(=O)O`, the EC50 was found to be 77 nM.
As for `N=C(N)NCCC[C@@H](NC(=O)[C@@H](CCCNC(=N)N)NC(=O)[C@@H](Cc1ccc(O)cc1)NC(=O)[C@@H](Cc1ccccc1)NC(=O)[C@H](N)CC(N)=O)C(=O)O`, the figure is 47 nM.
